From patent US11337922B2, “Lipid particle formulations for delivery of RNA and water-soluble therapeutically effective compounds to a target cell” (BioNTech RNA Pharmaceuticals GmbH, priority 2015, dated 2022)
At least one structure is not confirmed: it was looked up by name or label, or the drawing left a doubt.

Experiments:
[1] = test system: dendritic cells (DCs); experiment: IPP accumulation in DCs in vitro (mass spectrometry); type: cell-based, human
[2] = test system: Vγ9Vδ2 T cells; experiment: γ9δ2 T cell proliferation/expansion after coculture of ZA-loaded iDCs with PBLs; type: cell-based, human; conditions: 7-day coculture
Method: To check the functionality of the retained compound, ZA, the expansion of γ9δ2 T cells was evaluated after cocultivation of ZA-loaded iDCs with cryopreserved PBLs.
For evaluation of ex vivo frequency of γ9δ2 T cells freshly isolated PBMCs were stained with anti-CD3, anti-TCR-Vδ2 mABs and analysed via flow cytometry. Therefore, iDCs have been incubated as indicated for 24 h in standard medium (1×10^6 cells/mL) containing 5 μM ZA.
After loading with ZA, iDCs have been centrifuged and washed with PBS. The coculture of iDCs with PBLs was setup in a ratio of 20 (iDCs): γ9δ2 T cells ex vivo. The medium was supplemented with 10 U/mL IL-2 (Proleukin). After 7-day incubation cells were harvested, washed and stained with anti-CD3, anti-TCR-Vδ2 mABs to evaluate frequency of γ9δ2 T cells and their expansion via flow cytometry. For analysis the expansion rate was determined dividing whole cell amount of γ9δ2 T cells before or after 7-day-cultivation.

## O=P(O)(O)C(O)(Cn1ccnc1)P(=O)(O)O [free ZA, zoledronic acid]
[1]; over-night, 0.1-125 μM ZA
  IPP accumulation in DCs (FIG. 8): dose-dependency regarding accumulation of IPP
[1]; three different concentrations
  IPP accumulation in DCs (FIG. 11): did not increase IPP values
[2]
  percentage of Vγ9δ2 T cells compared to negative control (no ZA): increase of the percentage of Vγ9δ2 T cells
